1 substance from article PMC10698143 can be followed below.

The chains behind the UniProt entries cited, without tags or fusion partners.
UniProt P63104: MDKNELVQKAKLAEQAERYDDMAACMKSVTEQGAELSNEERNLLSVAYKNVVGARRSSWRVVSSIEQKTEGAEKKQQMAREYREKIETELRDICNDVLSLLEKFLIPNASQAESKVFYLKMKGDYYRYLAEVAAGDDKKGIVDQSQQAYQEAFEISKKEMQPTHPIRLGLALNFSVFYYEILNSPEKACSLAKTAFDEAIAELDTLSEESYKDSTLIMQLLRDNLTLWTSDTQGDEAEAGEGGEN

Positions count from the first letter of the chain named. Results are given in words; binding and its absence hold for the method and conditions named. Binding seen in cells or lysates may run through a third protein. Some entries that bind do so weakly or less than the wild type. For some assays here: Where a sequence is shown, tags or fusion partners need not be part of it.

For assay [1], the target named is T1, Macrophage migration inhibitory factor (MIF) (human (endogenous in RCTE)) (UniProt P14174).
T1 sequence: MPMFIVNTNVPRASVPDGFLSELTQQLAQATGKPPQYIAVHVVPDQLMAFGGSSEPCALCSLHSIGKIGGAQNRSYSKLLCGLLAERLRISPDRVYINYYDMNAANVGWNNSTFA
The experiment in a line: co-IP; endogenous proteins, RCTE cell lysates; anti-MIF or anti-PIP4K2a antibody on protein A agarose, 4 °C overnight, washed with lysis buffer with additional 300 mM NaCl, Western blot; also after PIP4K2a siRNA (less MIF with 14-3-3ζ) and GFP-PIP4K2a overexpression (more). Background: A western blot detects proteins with antibodies after separation by electrophoresis.

Assay [2] deals with T2, phosphatidylinositol-5-phosphate 4-kinase type 2 alpha (PIP4K2a) (human (endogenous in RCTE)) (UniProt P48426).
T2 sequence: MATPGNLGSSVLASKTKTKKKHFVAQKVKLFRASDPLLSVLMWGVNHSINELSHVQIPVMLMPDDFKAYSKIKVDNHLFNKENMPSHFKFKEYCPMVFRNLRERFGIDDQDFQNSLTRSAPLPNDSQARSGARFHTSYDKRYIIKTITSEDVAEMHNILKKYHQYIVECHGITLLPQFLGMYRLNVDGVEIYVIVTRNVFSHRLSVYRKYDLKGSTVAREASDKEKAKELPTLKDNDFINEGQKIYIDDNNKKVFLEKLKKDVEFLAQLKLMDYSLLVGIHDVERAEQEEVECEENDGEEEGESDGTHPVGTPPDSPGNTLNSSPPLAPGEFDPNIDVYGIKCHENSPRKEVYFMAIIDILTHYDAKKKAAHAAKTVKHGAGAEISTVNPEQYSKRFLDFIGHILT
The assay is described as above.

The target in assay [3] is T3, GFP tagged mutant MIF (S91A) (UniProt P14174).
T3 sequence: T1 sequence with S91A
The experiment in a line: co-IP; RCTE cells transfected with GFP tagged wild type or mutant (S91D, S91A) MIF; immunoprecipitation on protein A agarose, washed with lysis buffer with additional 300 mM NaCl, blot for 14-3-3ζ; also with lambda phosphatase treatment (less binding of the wild type).

In assay [4] the target is T4, GFP tagged mutant MIF (S91D) (UniProt P14174).
T4 sequence: T1 sequence with S91D
The assay is described as above.

Assay [5] has as its target T5, GFP tagged wild type MIF (UniProt P14174).
T5 sequence: T1 sequence
The assay is described as above.

For the substance “14-3-3ζ (YWHAZ) (from UniProt P63104 1-245)”, the binding result in assay [1] is “binds”; in assay [2], “binds”; in assay [3], “binds weakly”; in assay [4] it was “binds”; in assay [5], “binds”.
